Data set [1] concerns rats. Kind of data set: Maximal electroshock seizure test (MES) in rats. Type of data set: in vivo. The conditions noted are these: protective index = TD50/ED50, rats. From the text:
Briefly, Maximal Electroshock Seizure (MES) assay measures drug capacity to prevent seizure spread and is thus considered to model generalized tonic-clonic seizures. […] The current was delivered to the subjects by means of corneal electrodes to produce tonic hind limb extension. Animals not displaying tonic hind limb extension were considered affected positively by the tested compound.
A general note: In the maximal electroshock model the usual endpoint is tonic extension of the hind limbs.

Data set [2] deals with rats. Kind of data set: Subcutaneous metrazol seizure threshold test (scMet) in rats. Type of data set: in vivo. The conditions noted are these: protective index = TD50/ED50, rats. As for the experimental part:
Subcutaneous Metrazole Seizure Threshold Test (scMet) assay measures the ability of an agent to elevate seizure threshold and is considered to model generalized absence seizures. The assay was performed by subcutaneous injection of 85 mg/kg of the convulsant agent metrazole that induces clonic seizures in at least 97% of all animal models (rats and mice).

For data set [3], the system named is rats. The settings on record: protective index TD50/ED50, reference substances from literature data; cited from earlier work.

Like-named read-outs stand apart in the source and are kept apart here.

Consider `CC[C@@H](C)[C@@H](CC)C(=O)NC(N)=O` (racemic) [Compound 4, 1-(2-ethyl-3-methyl-pentanoyl)-urea], for which, in the data set on rats [1], the “PI in the MES test” value stood at 4. Further, the “PI in the scMet test” value with rats [2] was found to be 6.9.
For `CC(C)(C)CC(=O)NC(N)=O` [Compound 3, 1-(3,3-dimethyl-butyryl)urea], the “PI in the MES test” value in the data set on rats [1] is listed as 2.2. Besides, the “PI in the scMet test” value in the data set on rats [2] is listed as 5.5.
On to `CC1(C)C(C(=O)NC(N)=O)C1(C)C` [Reference Compound 1, N-(2,2,3,3-tetramethylcyclopropanecarbonyl)urea], for which the “PI in the MES test” value with rats [3] is on record as 18.5.
For the compound `CCCC(C(=O)NC(N)=O)C(C)C` (racemic) [Compound 1, 1-(2-isopropylpentanoyl)urea], the “PI in the MES test” value in the data set with rats [1] is recorded as 6. Besides, the “PI in the scMet test” value with rats [2] came out at 2.
Take `CCCC(CCC)C(=O)O` [Valproic acid, valproic acid]: in the data set on rats [3], the “PI in the MES test” value is given as 1.6.
Regarding `CC(C)C(C(=O)NC(N)=O)C(C)C` [Compound 2, 1-(2-isopropyl-3-methylbutanoyl)urea], the “PI in the MES test” value in the data set on rats [1] stood at 1.7. Moreover, the “PI in the scMet test” value in the data set on rats [2] is listed as 3.5.

The record behind these values is patent publication US8846903B2, “Acyl-urea derivatives and uses thereof” (Yissum Research Development Company of the Hebrew …, priority 2007, dated 2014).
